# Measured values taken from patent US7241770B2 (priority 2003, dated 2007).
# For at least one compound, name, drawing or mass did not settle the structure.
# Key:
# [1] = tested on: visceral hypersensitivity; parameters: species or system adult female Sprague Dawley rats; settings: rat, in vivo, sc
# [2] = tested on: normal colon transit; parameters: species or system male Sprague Dawley rats; settings: rat, in vivo, sc
# [3] = tested on: castor oil induced diarrhoea; parameters: species or system male NMRI mice; settings: mouse, in vivo, sc
# [4] = tested on: Adult stress-induced ultrasonic vocalisation; test: Adult stress-induced ultrasonic vocalisation (AUV) procedure, lack of CNS-penetration; type: in vivo; settings: intracerebroventricular injection
compound,measurement,setting,value
"CC(C)C[C@H](NC(=O)[C@H](CCCCN)NC(=O)[C@H](CCCN=C(N)N)NC(=O)[C@H](C)NC(=O)[C@H](CO)NC(=O)[C@H](CCCCN)NC(=O)[C@H](CCCN=C(N)N)NC(=O)[C@H](C)NC(=O)CNC(=O)[C@@H](NC(=O)[C@H](Cc1ccccc1)NC(=O)CNC(=O)CNC(=O)[C@@H](N)Cc1ccccc1)[C@@H](C)O)C(=O)N[C@@H](C)C(=O)N[C@@H](CC(N)=O)C(=O)N[C@@H](CCC(N)=O)C(=O)O [nociceptin, reference compound]",reduction of visceral hypersensitivity (in words),[1],able to reduce the visceral hypersensitivity
same,influence on normal colon transit (in words),[2],not influence the normal colon transit
same,reduction of castor oil induced diarrhea (in words),[3],able to reduce the castor oil induced diarrhea
same,activity in the AUV procedure (in words),[4],active in this assay
